The text below walks through data of PMC6072111.

Amino acid sequences for entries named in this document (tags omitted). A change or cut given only in a name is not applied to a line headed by its entry.
UniProt Q9NA28: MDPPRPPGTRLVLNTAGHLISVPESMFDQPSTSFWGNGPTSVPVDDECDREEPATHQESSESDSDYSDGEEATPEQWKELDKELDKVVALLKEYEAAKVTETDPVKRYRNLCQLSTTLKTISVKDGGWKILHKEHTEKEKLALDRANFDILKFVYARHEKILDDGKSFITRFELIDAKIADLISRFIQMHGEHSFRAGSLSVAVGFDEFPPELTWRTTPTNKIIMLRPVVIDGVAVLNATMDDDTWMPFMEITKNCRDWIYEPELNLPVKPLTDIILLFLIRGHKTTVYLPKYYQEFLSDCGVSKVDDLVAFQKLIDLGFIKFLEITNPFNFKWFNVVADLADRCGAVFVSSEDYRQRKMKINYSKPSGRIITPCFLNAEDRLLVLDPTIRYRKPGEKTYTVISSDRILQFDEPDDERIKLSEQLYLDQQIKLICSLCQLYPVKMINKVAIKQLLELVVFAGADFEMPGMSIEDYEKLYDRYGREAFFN

Results are given in words; binding and its absence hold for the method and conditions named. Binding seen in cells or lysates may run through a third protein. Here binding means that the protein was enriched with, or labelled near, the bait; the list need not be complete. Tags and fused reporters may be left off the sequences shown.

The target in the assay is T1, MUT-16::GFP::3xFLAG (C. elegans) (UniProt O62011).
T1 sequence: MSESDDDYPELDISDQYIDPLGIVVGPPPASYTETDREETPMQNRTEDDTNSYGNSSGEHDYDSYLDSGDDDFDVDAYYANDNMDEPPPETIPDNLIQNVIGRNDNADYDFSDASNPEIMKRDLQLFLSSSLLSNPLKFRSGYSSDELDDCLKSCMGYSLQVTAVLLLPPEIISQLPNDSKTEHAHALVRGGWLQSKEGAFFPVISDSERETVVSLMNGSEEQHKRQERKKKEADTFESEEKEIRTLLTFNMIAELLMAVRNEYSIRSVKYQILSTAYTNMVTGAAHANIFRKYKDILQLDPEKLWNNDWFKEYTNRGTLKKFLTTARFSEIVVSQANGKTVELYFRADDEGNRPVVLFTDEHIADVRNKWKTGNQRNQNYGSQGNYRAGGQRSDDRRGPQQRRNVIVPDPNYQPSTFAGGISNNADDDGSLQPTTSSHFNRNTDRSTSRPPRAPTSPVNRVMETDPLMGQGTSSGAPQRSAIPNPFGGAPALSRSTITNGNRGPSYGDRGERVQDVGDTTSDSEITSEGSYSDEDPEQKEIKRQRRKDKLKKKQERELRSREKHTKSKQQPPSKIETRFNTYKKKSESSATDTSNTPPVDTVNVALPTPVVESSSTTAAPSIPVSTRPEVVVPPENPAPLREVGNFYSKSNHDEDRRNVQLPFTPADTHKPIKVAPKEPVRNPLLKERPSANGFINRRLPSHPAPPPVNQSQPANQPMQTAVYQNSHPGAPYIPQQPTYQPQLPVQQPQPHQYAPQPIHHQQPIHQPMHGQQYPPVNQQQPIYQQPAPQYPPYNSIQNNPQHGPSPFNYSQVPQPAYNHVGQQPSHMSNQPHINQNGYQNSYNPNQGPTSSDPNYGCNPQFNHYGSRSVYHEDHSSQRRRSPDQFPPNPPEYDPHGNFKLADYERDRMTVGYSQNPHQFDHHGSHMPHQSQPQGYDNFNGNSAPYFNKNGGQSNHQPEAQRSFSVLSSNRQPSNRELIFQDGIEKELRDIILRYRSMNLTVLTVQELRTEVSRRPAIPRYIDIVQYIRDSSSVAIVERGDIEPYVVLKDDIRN
Put plainly: affinity purification with mass spectrometry; FLAG or GFP immunoprecipitation (anti-GFP and anti-FLAG affinity matrix) from wild-type and MUT-16::GFP::FLAG lysates, ~500,000 synchronized adult C. elegans for each sample.

In the case of NYN-2 (from UniProt Q9NA28), the binding result is listed as “binds”.
